About 4,000 (1%) of roughly 390,000 compounds were called active. Inconclusive results, whose numbers are uncertain, are shown with a selection of clear calls. Calls follow the shape of the dose curve; as a rule, active = well fitted inhibition curve with a large enough effect; inconclusive = small, poorly fitted or top-dose-only effect, or another doubt; inactive = no such curve, though single readings can be large or run the other way. Potencies beside an inconclusive call are fits to weak or partial responses and may not hold up.
Target: DNA polymerase iota (Homo sapiens) (UniProt Q9UNA4)
Assay: qHTS for Inhibitors of Polymerase Iota
Settings: Pol iota fluorescent replication assay, 10 min; series mostly up to 115 µM
Method in brief: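 Pol iota at 10 nM preincubated 15 min with compounds at room temperature; reaction started with fluorescent substrate, 50 nM final. Fluorescence read kinetically at 0 and 10 min; buffer-only wells as negative control.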
Potency is read from the fitted curve at half-maximal effect.

By UniProt entry, the sequences of proteins in these tests, tags left out. Where a name states a change or a piece, a line headed by the entry shows the natural chain unless it says otherwise.
UniProt Q9UNA4: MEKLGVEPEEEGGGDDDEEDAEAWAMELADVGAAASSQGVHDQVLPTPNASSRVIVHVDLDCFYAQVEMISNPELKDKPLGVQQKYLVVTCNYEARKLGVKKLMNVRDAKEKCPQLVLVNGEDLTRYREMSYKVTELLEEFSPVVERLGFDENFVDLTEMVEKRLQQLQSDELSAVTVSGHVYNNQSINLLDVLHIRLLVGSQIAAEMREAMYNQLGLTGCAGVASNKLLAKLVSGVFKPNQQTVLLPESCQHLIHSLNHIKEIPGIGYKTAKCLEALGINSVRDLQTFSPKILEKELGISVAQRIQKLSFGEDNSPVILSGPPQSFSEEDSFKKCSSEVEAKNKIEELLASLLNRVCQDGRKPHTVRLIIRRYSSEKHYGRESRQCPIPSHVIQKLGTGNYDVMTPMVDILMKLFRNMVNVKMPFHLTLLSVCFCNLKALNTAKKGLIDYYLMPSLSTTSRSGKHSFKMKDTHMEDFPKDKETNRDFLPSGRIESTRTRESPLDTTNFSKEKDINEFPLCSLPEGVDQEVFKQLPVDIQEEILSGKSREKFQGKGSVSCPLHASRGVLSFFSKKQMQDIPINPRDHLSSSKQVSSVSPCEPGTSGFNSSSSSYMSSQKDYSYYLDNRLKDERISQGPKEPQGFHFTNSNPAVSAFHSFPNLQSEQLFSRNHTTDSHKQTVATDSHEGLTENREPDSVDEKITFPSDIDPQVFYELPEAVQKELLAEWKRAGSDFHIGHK

SMILES | Potency
CCOc1ccc(-c2nnc(SCC(=O)Nc3ccc4c(c3)c3ccccc3n4CC)n2N)cc1 | active: 50.1 µM
CCN(CC)CCCNC1=C(Cl)C(=O)c2ccccc2C1=O | inconclusive: 44.7 µM [inhibitor, partial curve, poor fit]
CCOC(=O)N1CCc2c(sc3nc4n(c(=O)c23)N=C(c2ccc(OC)cc2)CS4)C1 | inconclusive: 22.4 µM [inhibitor, partial curve, poor fit]
COc1ccc2cc(C(c3nnnn3CCc3ccccc3)N3CCC(O)CC3)c(=O)[nH]c2c1 (configuration not stated) | inconclusive: 25.1 µM [inhibitor, single point]
COC(=O)c1cc2c(=O)c3ccccc3oc2nc1/C=C/N(C)C | inconclusive: 17.8 µM [inhibitor, partial curve, poor fit]
COc1ccccc1NC(=O)C(C)OC(=O)C1CC(=O)N(c2ccc3c(c2)OCCO3)C1 (configuration not stated) | inactive
CC1CCc2c(C(=O)N3CCN(S(=O)(=O)c4cccs4)CC3)csc2C1 (configuration not stated) | inconclusive: 25.1 µM [inhibitor, single point]
CCc1ccc(NC(=O)COc2ccc(F)cc2C(=O)c2cnn(-c3ccccc3)c2)cc1 | inconclusive: 89.1 µM [inhibitor, single point]
CCC(C)/C(C)=N/Nc1ccc(S(N)(=O)=O)cc1[N+](=O)[O-] (configuration not stated) | inactive
O=C1NC(=O)/C(=C\c2ccc(Br)o2)S1 | inconclusive: 12.6 µM [inhibitor, partial curve, poor fit]
Cc1sc2ncnc(N/N=C/c3ccc(O)cc3)c2c1C | inconclusive: 44.7 µM [inhibitor, partial curve, poor fit]
CCOC(=O)c1sc(N2C(=O)C(O)=C(C(=O)c3ccco3)C2c2ccc(C)o2)nc1C (configuration not stated) | inconclusive: 39.8 µM [inhibitor, single point]
CCCCN1C(Nc2ccccc2)=NC[C@@H]1CC(C)C | inconclusive: 28.2 µM [inhibitor, partial curve, poor fit]
CCOc1ccc(NC(=O)/C(C#N)=C/c2cn(CC(=O)O)c3ccccc23)cc1 | inactive
COc1ccc(C(=O)Nc2sc3c(c2C#N)CCN(C(C)=O)C3)cc1 | inactive
Cc1ccc(-c2nc3ccccc3s2)cc1NC(=S)NC(=O)/C=C/c1ccco1 | inconclusive: 17.8 µM [inhibitor, full curve, poor fit]
O=C(NCc1ccco1)c1ccc(-c2csnn2)cc1 | inconclusive: 22.4 µM [inhibitor, single point]
Cc1cccn2c(=O)cc(COc3ccc(NC(=O)COc4ccc(F)cc4)cc3)nc12 | inactive
COc1ccc(S(=O)(=O)Nc2ccccc2C(=O)NCc2ccco2)cc1 | inconclusive: 1.12 µM [inhibitor, full curve, poor fit]
CCCn1nnc(NC(=O)c2ccc(-c3ccccc3)cc2)n1 | inconclusive: 100 µM [inhibitor, partial curve, poor fit]
CCN1/C(=C2\SC(=S)N(Cc3ccccc3)C2=O)Sc2ccccc21 | inconclusive: 100 µM [inhibitor, partial curve, poor fit]

SMILES | Potency
COc1ccccc1NC(=O)C(C)N1CCN(C/C=C/c2ccccc2)CC1 (configuration not stated) | inconclusive: 20 µM [inhibitor, single point]
COc1cc(/C=C/C(=O)/C=C(O)/C=C/c2ccc(O)c(OC)c2)ccc1O | inconclusive: 20 µM [inhibitor, full curve, poor fit]
CN(c1ccc(C(=O)NCc2ccc3c(c2)OCO3)cc1)S(=O)(=O)c1ccccc1 | inconclusive: 100 µM [inhibitor, single point]
c1cncc(-c2nnc(SCc3nc4ccccc4[nH]3)o2)c1 | inconclusive: 4.47 µM [inhibitor, partial curve, poor fit]
CC(=O)COc1ccc2c(c1C)O/C(=C\c1ccco1)C2=O | inconclusive: 17.8 µM [inhibitor, full curve, poor fit]
C=C(CC[C@]12OC(C(=O)O)C(O)(C(=O)O)C(C(=O)O)(O1)C(OC(=O)/C=C/[C@@H](C)C[C@@H](C)CC)C2O)[C@@H](OC(C)=O)[C@H](C)Cc1ccccc1 (some centres not stated) | inconclusive: 31.6 µM [inhibitor, full curve]
Cc1cc(NC(=O)c2cccnc2)ccc1NC(=O)c1cc2ccccc2o1 | inconclusive: 35.5 µM [inhibitor, full curve]
CCOC(=S)SCC(=O)Nc1nc(C)c(C)s1 | inconclusive: 25.1 µM [inhibitor, partial curve, poor fit]
Cn1cc(S(=O)(=O)N2CCCC2)cc1C(=O)O | inconclusive: 50.1 µM [inhibitor, partial curve, poor fit]
CCN=C(NCC)SC1CC(=O)N(CCc2ccccc2)C1=O (configuration not stated) | inconclusive: 89.1 µM [inhibitor, partial curve, poor fit]
COc1ccc(NC2CCCN(C(=O)c3ccc(OC)cc3OC)C2)cc1 (configuration not stated) | inconclusive: 100 µM [inhibitor, single point]
Nc1ccc(S(=O)(=O)Nc2nc3ccccc3o2)cc1 | inconclusive: 28.2 µM [inhibitor, partial curve, poor fit]
CCn1c(CNC(=O)c2ccccc2F)nnc1SCC(=O)NC1CCCCC1 | inactive
O=C1c2ccccc2-c2onc3ccc(Oc4ccccc4)c1c23 | inconclusive: 25.1 µM [inhibitor, partial curve, poor fit]
CN(C)c1ccc(/C=C/c2nc3ccccc3c(=O)n2-c2ccc(C(=O)O)cc2)cc1 | inconclusive: 20 µM [inhibitor, full curve]
COc1ccc(S(=O)(=O)c2cc3cc(C(C)(C)C)cc(O)c3oc2=O)cc1 | inconclusive: 35.5 µM [inhibitor, partial curve, poor fit]
S=C(NCCc1ccccc1)N/N=C/c1ccccc1Cl | inactive
COc1cc(Cl)c(C)cc1NC(=O)C1CCCN(c2ncnc3onc(-c4ccc(F)cc4)c23)C1 (configuration not stated) | inactive
O=C(c1ccc2c(c1)N(Cc1cccc(Cl)c1)C(=O)c1ccccc1S2(=O)=O)N1CCc2ccccc21 | inconclusive: 100 µM [inhibitor, single point]
Cc1c(C(=O)Nc2ccc(S(=O)(=O)Nc3ncccn3)cc2)oc2ccccc12 | inconclusive: 56.2 µM [inhibitor, partial curve, poor fit]
Cc1nnc(N/N=C/c2ccccn2)[nH]c1=O | inconclusive: 15.8 µM [inhibitor, partial curve, poor fit]

SMILES | Potency
O=C(Nc1ccccn1)c1ccc(Cl)c(S(=O)(=O)N2CCc3ccccc32)c1 | inconclusive: 89.1 µM [inhibitor, single point]
CCOC(=O)C1=C(C)NC2=C(C(=O)C(C(=O)OCC)C(c3ccco3)C2)C1c1ccccc1C (configuration not stated) | inconclusive: 89.1 µM [inhibitor, partial curve, poor fit]
Oc1c(Cl)cc(Cl)c2cccnc12 | inactive
O=C1C2CC=CCC2C(=O)N1c1ncn[nH]1 (configuration not stated) | inactive
O=C(O)c1ccccc1NS(=O)(=O)c1ccc(NNC(=S)Nc2ccc(OC(F)F)cc2)c([N+](=O)[O-])c1 | inconclusive: 89.1 µM [inhibitor, partial curve, poor fit]
O=C(NCc1cccnc1)c1ccc(-c2cc3ccccc3oc2=O)cc1 | active: 79.4 µM
O=C(NN=C1CCN(Cc2ccccc2)CC1)c1cc2ccccc2cc1O | active: 79.4 µM
CC(NC(=O)/C(C#N)=C/c1ccc(Cl)c([N+](=O)[O-])c1)c1ccccc1 (configuration not stated) | inactive
CN(C)c1ccc(NS(=O)(=O)c2ccc(-c3csnn3)cc2)cc1 | inconclusive: 70.8 µM [inhibitor, partial curve, poor fit]
Cc1cc(=O)oc2cc(Oc3ccc(C(N)=O)cc3[N+](=O)[O-])ccc12 | inconclusive: 79.4 µM [inhibitor, partial curve]
Cc1ccn2c(=O)cc(COc3ccc(NC(=O)C(C)(C)C)cc3)nc2c1 | inconclusive: 89.1 µM [inhibitor, partial curve, poor fit]
O=C(CSc1nnc(SCc2ccccc2)s1)N/N=C/C=C/c1ccco1 | active: 14.1 µM
Cn1cc(C=O)c2cc(F)ccc21 | inactive
CCN(CC)C(=O)c1sc2c(c1C)c(=O)n(-c1ccc(C)c(C)c1)c(=O)n2CC(=O)Nc1ccc(OC)cc1OC | inconclusive: 89.1 µM [inhibitor, partial curve, poor fit]
COc1ccc(OC)c(CNS(=O)(=O)c2cc(-c3onc(C)c3C)ccc2C)c1 | inconclusive: 22.4 µM [inhibitor, full curve, poor fit]
O=C(CSc1nnc(CN2CCCCC2)n1-c1ccccc1)c1ccc2c(c1)OCO2 | inconclusive: 100 µM [inhibitor, partial curve, poor fit]
O=C(N/N=C/C(Cl)=C/c1ccc([N+](=O)[O-])cc1)C(=O)Nc1cccc(C(=O)O)c1 | inconclusive: 2.82 µM [inhibitor, full curve, poor fit]
CCOc1ccc2c(c1)c(=O)c(C(=O)c1ccccc1)cn2Cc1ccccc1F | inconclusive: 89.1 µM [inhibitor, single point]
COc1ccccc1C(=O)NCC(=O)N/N=C/c1ccc2c(c1)OCO2 | inconclusive: 89.1 µM [inhibitor, partial curve, poor fit]
Cc1ccc(S(=O)(=O)c2[nH]c(-c3ccccc3)nc2SC(C)C(=O)O)cc1 (configuration not stated) | inactive

Quoted from the results shown, four compounds:
SMILES | Potency
CC(NC(=O)/C(C#N)=C/c1ccc(Cl)c([N+](=O)[O-])c1)c1ccccc1 (configuration not stated) | inactive
CN(C)c1ccc(NS(=O)(=O)c2ccc(-c3csnn3)cc2)cc1 | inconclusive: 70.8 µM [inhibitor, partial curve, poor fit]
Cc1cc(=O)oc2cc(Oc3ccc(C(N)=O)cc3[N+](=O)[O-])ccc12 | inconclusive: 79.4 µM [inhibitor, partial curve]
Cc1ccn2c(=O)cc(COc3ccc(NC(=O)C(C)(C)C)cc3)nc2c1 | inconclusive: 89.1 µM [inhibitor, partial curve, poor fit]

From PubChem BioAssay AID588590 (National Center for Advancing Translational Sciences (NCATS), 2011)
